Four substances from publication PMC12306165 can be followed below.

Amino acid sequences for entries named in this document (tags omitted). A change or cut given only in a name is not applied to a line headed by its entry.
UniProt Q8I480: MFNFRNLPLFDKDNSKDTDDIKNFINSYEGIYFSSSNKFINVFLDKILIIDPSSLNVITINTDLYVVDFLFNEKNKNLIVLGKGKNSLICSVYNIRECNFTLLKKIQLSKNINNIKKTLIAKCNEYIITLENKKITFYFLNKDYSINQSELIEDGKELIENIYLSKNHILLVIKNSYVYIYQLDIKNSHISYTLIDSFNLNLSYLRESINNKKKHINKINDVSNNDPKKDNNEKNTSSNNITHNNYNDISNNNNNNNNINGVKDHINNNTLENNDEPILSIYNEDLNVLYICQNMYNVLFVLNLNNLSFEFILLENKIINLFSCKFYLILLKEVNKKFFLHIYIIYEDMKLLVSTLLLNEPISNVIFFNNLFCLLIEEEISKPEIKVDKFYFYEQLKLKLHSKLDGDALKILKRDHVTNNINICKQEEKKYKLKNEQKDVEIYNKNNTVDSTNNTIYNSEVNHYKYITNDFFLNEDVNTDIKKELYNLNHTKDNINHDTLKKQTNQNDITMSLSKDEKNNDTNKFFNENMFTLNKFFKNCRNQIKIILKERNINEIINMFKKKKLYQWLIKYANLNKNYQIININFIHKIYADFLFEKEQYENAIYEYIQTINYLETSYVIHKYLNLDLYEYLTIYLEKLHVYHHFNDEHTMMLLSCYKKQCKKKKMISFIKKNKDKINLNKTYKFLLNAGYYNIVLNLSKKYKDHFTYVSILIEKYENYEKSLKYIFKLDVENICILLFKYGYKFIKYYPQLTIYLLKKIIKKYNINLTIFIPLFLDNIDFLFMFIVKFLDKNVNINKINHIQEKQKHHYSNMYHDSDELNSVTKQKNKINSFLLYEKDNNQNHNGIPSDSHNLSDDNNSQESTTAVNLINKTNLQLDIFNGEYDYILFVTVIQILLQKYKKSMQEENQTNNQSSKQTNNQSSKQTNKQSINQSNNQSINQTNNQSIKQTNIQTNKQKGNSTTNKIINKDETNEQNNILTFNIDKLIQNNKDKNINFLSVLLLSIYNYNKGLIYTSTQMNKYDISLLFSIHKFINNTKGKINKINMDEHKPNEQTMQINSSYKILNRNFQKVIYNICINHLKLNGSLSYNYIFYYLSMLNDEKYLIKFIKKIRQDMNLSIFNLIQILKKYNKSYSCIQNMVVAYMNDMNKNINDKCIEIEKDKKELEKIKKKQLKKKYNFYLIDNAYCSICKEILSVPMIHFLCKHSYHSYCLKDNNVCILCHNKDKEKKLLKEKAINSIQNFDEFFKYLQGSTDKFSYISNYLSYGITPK
UniProt C0H539: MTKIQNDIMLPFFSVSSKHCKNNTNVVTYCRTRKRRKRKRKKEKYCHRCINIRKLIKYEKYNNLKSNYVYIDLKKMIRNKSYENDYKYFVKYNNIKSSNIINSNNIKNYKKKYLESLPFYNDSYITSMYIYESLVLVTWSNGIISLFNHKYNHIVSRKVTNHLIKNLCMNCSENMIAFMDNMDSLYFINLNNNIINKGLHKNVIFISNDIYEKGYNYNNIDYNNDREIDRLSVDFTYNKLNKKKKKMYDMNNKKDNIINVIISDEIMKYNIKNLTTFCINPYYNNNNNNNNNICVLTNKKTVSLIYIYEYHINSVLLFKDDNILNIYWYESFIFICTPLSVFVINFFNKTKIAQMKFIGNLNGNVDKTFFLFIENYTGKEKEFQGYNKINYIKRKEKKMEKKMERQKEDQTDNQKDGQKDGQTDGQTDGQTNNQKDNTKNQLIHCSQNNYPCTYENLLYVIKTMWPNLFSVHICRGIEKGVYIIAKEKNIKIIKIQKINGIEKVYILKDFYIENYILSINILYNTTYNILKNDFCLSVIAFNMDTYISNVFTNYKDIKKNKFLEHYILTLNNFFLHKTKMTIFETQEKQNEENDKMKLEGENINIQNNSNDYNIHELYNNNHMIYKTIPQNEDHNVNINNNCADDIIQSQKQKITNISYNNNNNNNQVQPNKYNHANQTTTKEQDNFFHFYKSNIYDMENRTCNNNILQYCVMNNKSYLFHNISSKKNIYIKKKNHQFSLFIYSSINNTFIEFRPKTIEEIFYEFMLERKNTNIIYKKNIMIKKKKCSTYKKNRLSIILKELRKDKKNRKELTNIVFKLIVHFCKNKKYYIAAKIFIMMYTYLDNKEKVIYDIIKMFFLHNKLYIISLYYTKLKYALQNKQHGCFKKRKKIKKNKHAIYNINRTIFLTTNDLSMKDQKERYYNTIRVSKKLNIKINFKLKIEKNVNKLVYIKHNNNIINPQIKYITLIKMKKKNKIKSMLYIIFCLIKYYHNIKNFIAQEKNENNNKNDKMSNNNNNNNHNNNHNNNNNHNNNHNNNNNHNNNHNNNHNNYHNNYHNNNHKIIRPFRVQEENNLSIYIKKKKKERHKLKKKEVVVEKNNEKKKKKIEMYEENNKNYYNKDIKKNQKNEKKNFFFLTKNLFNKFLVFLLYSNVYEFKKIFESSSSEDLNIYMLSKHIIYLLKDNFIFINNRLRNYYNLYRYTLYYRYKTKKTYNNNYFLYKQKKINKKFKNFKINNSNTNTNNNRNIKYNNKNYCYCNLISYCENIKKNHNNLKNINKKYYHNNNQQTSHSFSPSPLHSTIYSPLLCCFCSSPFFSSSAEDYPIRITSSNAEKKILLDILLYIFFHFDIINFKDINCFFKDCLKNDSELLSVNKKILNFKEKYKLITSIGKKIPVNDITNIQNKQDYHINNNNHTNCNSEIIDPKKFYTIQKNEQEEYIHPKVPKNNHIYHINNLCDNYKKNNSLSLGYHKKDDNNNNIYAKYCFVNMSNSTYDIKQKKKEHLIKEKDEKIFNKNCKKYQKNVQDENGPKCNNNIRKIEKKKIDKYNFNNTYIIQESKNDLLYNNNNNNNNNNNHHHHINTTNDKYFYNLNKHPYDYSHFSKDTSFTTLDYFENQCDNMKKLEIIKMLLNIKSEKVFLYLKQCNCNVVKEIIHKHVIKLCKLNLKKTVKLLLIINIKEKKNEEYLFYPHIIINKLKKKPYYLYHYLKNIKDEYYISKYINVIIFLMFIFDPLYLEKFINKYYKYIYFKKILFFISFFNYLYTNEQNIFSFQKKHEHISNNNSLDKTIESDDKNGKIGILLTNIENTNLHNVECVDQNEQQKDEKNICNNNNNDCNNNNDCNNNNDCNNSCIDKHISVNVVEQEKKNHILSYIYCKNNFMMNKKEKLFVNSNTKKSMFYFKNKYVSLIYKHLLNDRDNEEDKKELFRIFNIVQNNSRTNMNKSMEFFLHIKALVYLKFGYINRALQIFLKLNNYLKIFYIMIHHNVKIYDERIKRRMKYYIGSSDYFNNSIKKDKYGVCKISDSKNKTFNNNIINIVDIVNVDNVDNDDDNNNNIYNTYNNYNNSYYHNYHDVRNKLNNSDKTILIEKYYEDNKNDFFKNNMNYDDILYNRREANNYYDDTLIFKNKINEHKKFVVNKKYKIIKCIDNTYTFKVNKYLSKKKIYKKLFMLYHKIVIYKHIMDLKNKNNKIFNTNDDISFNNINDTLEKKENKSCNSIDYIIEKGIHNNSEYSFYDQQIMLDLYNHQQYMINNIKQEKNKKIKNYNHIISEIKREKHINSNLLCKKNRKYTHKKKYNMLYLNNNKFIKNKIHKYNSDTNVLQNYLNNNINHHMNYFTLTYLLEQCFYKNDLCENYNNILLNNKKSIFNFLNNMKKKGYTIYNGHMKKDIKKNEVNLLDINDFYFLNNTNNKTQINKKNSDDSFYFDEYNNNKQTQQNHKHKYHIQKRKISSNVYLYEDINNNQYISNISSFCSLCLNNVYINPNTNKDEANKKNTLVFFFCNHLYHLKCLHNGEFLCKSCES
UniProt Q8ILL4: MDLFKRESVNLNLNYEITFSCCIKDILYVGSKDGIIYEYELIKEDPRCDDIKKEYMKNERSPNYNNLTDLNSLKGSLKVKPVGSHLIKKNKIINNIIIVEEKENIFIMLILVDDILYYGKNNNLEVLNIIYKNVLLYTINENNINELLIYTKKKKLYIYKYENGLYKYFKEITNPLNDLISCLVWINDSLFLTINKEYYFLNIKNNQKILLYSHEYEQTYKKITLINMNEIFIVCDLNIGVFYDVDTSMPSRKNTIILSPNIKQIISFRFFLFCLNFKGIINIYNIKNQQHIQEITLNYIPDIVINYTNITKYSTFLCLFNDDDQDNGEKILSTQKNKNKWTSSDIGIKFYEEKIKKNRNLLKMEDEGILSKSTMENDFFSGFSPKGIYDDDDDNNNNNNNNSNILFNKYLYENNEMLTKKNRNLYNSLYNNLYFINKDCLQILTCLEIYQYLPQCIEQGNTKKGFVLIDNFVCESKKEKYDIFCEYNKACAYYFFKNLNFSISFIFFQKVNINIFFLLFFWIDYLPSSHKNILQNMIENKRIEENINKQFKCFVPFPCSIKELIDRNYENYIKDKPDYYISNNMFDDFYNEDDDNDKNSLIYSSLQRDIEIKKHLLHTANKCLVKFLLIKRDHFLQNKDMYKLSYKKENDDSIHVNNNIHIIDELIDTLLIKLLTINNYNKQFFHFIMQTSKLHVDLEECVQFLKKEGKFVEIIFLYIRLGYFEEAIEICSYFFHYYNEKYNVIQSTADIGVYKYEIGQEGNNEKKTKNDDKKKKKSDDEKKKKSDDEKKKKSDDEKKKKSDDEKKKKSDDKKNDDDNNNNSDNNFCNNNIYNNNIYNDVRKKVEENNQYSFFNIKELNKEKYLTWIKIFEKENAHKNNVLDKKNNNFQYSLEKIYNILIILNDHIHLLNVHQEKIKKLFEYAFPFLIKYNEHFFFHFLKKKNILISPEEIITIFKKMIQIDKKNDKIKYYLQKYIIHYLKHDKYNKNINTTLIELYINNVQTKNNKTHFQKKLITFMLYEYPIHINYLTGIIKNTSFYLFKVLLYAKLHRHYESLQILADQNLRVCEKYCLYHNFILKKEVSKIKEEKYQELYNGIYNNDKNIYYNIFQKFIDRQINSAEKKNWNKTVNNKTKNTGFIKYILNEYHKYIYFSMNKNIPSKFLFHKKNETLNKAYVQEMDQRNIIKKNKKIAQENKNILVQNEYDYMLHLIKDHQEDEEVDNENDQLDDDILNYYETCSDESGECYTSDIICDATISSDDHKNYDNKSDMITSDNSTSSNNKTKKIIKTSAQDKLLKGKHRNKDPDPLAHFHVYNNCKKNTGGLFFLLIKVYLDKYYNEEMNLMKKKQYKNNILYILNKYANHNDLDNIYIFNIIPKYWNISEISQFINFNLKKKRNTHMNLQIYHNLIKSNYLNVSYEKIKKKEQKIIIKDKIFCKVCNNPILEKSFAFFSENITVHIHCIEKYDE

No constants are given. Whether binding was seen depends on the method and setting. Binding seen in cells or lysates may run through a third protein. Here binding means that the protein was enriched with, or labelled near, the bait; the list need not be complete.

The target in this assay is PfVps16-2xFKBP-GFP (P. falciparum (endogenous locus in NF54 parasites)) (UniProt Q8I524). The assay can be described thus: affinity purification with mass spectrometry; anti-GFP mAb-agarose beads on the soluble fraction (1% T-Net) of schizont extracts of the PfVps16-2xFKBP-GFP line, 4°C, washed two times in PBS; untagged NF54 as negative control; two biological replicates, hits enriched at least twofold in both.
For the substance PfVps11 (from UniProt Q8I480), the binding entry is given as “binds”.

With “WD-repeat containing transmembrane protein (PF3D7_0619800) (from UniProt C6KT38 1-2530)”, the binding result was “binds”. To “conserved Plasmodium protein (PF3D7_0916400) (from UniProt C0H539 1-2519)” belongs “binds”.

On to PfVps3 (from UniProt Q8ILL4), for which the binding entry is “binds”.
